Here are results for one sequence from PMC11407766, “OsNF-YB7 inactivates OsGLK1 to inhibit chlorophyll biosynthesis in rice embryo”.

The target in the series is T1, OsGLK1-MBP (Oryza sativa) (UniProt Q5Z5I4).
T1 sequence (looked up): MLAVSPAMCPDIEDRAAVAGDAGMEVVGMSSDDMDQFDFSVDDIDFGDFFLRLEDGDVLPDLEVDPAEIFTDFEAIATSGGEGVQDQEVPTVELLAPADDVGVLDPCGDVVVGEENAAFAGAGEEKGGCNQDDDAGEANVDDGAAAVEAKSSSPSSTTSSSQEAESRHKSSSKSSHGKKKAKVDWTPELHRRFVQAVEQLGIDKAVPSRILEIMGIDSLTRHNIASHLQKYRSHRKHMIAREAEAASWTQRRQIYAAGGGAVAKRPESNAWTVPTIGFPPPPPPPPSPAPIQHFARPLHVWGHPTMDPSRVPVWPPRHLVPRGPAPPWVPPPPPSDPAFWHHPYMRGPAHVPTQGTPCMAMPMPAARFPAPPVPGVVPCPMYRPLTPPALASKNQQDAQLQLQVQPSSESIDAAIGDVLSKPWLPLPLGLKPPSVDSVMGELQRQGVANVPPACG
The series is described as follows: EMSA. Particulars: with OsNF-YB7-His (2 or 4 uM proteins), inhibits OsGLK1 binding; Beyotime EMSA/Gel-Shift kit (GS009), manufacturer's conditions; 2 or 4 uM protein in Figure 6G; pH and temperature not stated; recombinant protein; residues 1-455; protein details: MBP (pMAL-c5X); label: biotin (3' hydroxyl end of both strands). Background: A gel shift assay detects complexes by their altered migration in electrophoresis.

For at least one entry, the source does not settle the construct or the ends of the probe. Weaker means in comparison with the reference protein, sequence or condition of that experiment. Tags and fusion partners may be left off the protein sequences shown.

With “TACGAAAAAATATCCCACCACGTGTCGCTTTCACAGGACAAT (double strand) [OsPORA promoter probe]”, the binding result was “binds more weakly”.
